# Assay results taken from PubChem BioAssay AID1487 (National Center for Advancing Translational Sciences (NCATS), 2009).
# The other results are listed elsewhere or left out. Further columns of the screen follow, without active or inactive calls. The list favours compounds with an active or inconclusive main result. Potencies come from curve fits of mixed quality, noted in brackets.
# Experiment: qHTS Assay for Modulators of Lamin A Splicing
# Conditions: HeLa LMNA splicing GFP/RFP minigene ratio, 48 h
# Outline: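 S3 HeLa cells stably expressing lamin A-EGFP splicing minigene plus DsRed2, 600 cells/well, 48 h compound exposure at 37C. Laser-scanning cytometry; analysed as GFP (500-530 nm)/RFP (575-640 nm) total intensity ratio; 0.5% DMSO vehicle.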
# [1] = measured here: GFP splicing reporter channel
# [2] = measured here: RFP viability control channel
Compound,AC50 [1],AC50 [2]
Nc1ccc(C(=O)OCc2nc3cc4ccccc4cc3[nH]2)cc1,"10 µM [falling, partial curve]","11.2 µM [rising, partial curve]"
CCc1ccc(OCCCC(=O)NCc2ccccc2)cc1,"35.5 µM [rising, single point]","20 µM [rising, single point]"
O=C(CSC1=NCCS1)Nc1nc2ccccc2s1,–,"12.6 µM [rising, partial curve]"
O=C(O)C1CCCCC1C(=O)Nc1ccc(-c2ccccc2)cc1 (stereo unspecified),–,"1 µM [falling, full curve]"
C[N+]1(CC(=O)OCCCC2CCCCC2)CCCC1,"0.01 µM [rising, full curve, poor fit]",–
O=C(N/N=C/C(Br)=C\c1ccccc1)c1ccc2nc[nH]c2c1,"15.8 µM [falling, partial curve, poor fit]",–
CC(C)NC(=O)COc1ccc(/C=N/NS(=O)(=O)c2ccccc2)cc1,"2.51 µM [falling, partial curve]",–
O=C1c2ccccc2NC(c2ccco2)N1NS(=O)(=O)c1ccccc1 (stereo unspecified),"0.794 µM [falling, full curve, poor fit]","0.794 µM [falling, full curve, poor fit]"
CCC(=O)c1ccc(Oc2ccc(C(=O)c3ccc(C)cc3)cc2[N+](=O)[O-])cc1,–,"3.55 µM [rising, partial curve, poor fit]"
CCOC(=O)c1c(C)[nH]c(C(=O)OCC(=O)N2c3ccccc3CC2C)c1C (stereo unspecified),–,"22.4 µM [rising, partial curve]"
CC1CCN(c2oc(-c3ccccc3Cl)nc2C#N)CC1,"14.1 µM [rising, single point]","15.8 µM [rising, partial curve]"
O=C(NC1CCCC1)c1ccc2c(=O)n(Cc3ccccc3)c(SCc3ccccc3F)nc2c1,"0.224 µM [falling, full curve, poor fit]",–
COCCn1c(N)c(C#N)c2nc3ccccc3nc21,"2.51 µM [falling, single point]","2.51 µM [falling, single point]"
CCn1ncc(Br)c1C(=O)Nc1ccn(C23CC4CC(CC(C4)C2)C3)n1,–,"22.4 µM [rising, single point]"
CCN(CC)c1ccc(-c2nc3cnccc3n2C)cc1,"11.2 µM [rising, single point]","11.2 µM [rising, single point]"
CCOC(=O)c1c(NC(=O)c2ccc(C)cc2)sc2c1CC(C)(C)OC2,"22.4 µM [rising, single point]","31.6 µM [rising, single point]"
CN1CCN(CCC=C2c3ccccc3Sc3ccc(S(=O)(=O)N(C)C)cc32)CC1,–,"0.398 µM [falling, single point]"
O=C(c1ccccc1Br)N1CCCC(c2nc(-c3cccs3)no2)C1 (stereo unspecified),–,"17.8 µM [rising, single point]"
Cc1cc(C)c2cc(CN(CC3CCCO3)C(=S)NCc3ccco3)c(=O)[nH]c2c1 (stereo unspecified),"6.31 µM [falling, full curve, poor fit]",–
O/N=C(\c1ccc(Cl)cc1Cl)c1ncc(C(F)(F)F)cc1Cl,–,"31.6 µM [rising, single point]"
COc1ccc(COc2ccsc2C(=O)Nc2ccc(Cl)c(Cl)c2)cc1,"22.4 µM [falling, single point]","17.8 µM [falling, partial curve]"
Cc1ccc(S(=O)(=O)NCCC(=O)OCC(=O)Nc2cccc(S(=O)(=O)NC3=NCCCCC3)c2)cc1,"0.01 µM [rising, full curve, poor fit]",–
O=C(O)c1cc(S(=O)(=O)N2CCCCCC2)c(Cl)cc1Cl,"14.1 µM [rising, partial curve]","3.98 µM [rising, partial curve]"
Cc1cc2nc(SCC(=O)N(C)C)c3c(c2cc1C)CCCC3,"14.1 µM [falling, partial curve, poor fit]","11.2 µM [falling, partial curve, poor fit]"
O=C(COc1ccc(Cc2ccccc2)cc1)c1ccc(F)cc1,–,"31.6 µM [rising, single point]"
Cc1ccccc1N(C)S(=O)(=O)c1nnc(NC(=O)c2ccco2)s1,"7.08 µM [rising, full curve, poor fit]","5.01 µM [rising, partial curve]"

# 3 entries already listed, ordered by heavy-atom count, largest number first.
Compound,AC50 [1],AC50 [2]
CCC(=O)c1ccc(Oc2ccc(C(=O)c3ccc(C)cc3)cc2[N+](=O)[O-])cc1,–,"3.55 µM [rising, partial curve, poor fit]"
O=C(N/N=C/C(Br)=C\c1ccccc1)c1ccc2nc[nH]c2c1,"15.8 µM [falling, partial curve, poor fit]",–
CCc1ccc(OCCCC(=O)NCc2ccccc2)cc1,"35.5 µM [rising, single point]","20 µM [rising, single point]"

# The listing continues.

Compound,AC50 [1],AC50 [2]
CCOC(=O)c1cc(-c2ccc(OC)cc2)n(CCC(=O)NCCc2ccccc2)c1C,–,"6.31 µM [rising, full curve, poor fit]"
COc1cccc(C(=O)NCCc2csc3nc(-c4ccccc4F)nn23)c1OC,"6.31 µM [falling, partial curve, poor fit]",–
CCCCc1ccc(-n2c(Cc3cccs3)n[nH]c2=S)cc1,–,"11.2 µM [rising, partial curve, poor fit]"
O=C1C=C(NCc2ccc(Cl)c(Cl)c2)C2(CCCCC2)O1,"12.6 µM [rising, single point]","14.1 µM [rising, partial curve]"
CCOC(=O)Cc1csc(/N=C/c2c(O)n(-c3ccccc3C(F)(F)F)c(=O)c3ccccc23)n1,–,"14.1 µM [rising, single point]"
Cc1ccc(CNC(=O)Cn2c(SCC(=O)Nc3ccc(F)cc3)nc3ccccc32)cc1,"22.4 µM [falling, partial curve, poor fit]","28.2 µM [falling, partial curve, poor fit]"
CC1(C)CC(=O)C(C=Nc2cc(C(=O)c3ccccc3)ccc2N)=C(O)C1,–,"0.0141 µM [falling, full curve, poor fit]"
CCCCn1c(CN2CCN(c3cccc(Cl)c3)CC2)nc2c1c(=O)n(C)c(=O)n2C,–,"2.82 µM [rising, single point]"
O=C(Nc1nnc(SCc2ccc(Cl)cc2)s1)c1cnccn1,"14.1 µM [rising, partial curve]","15.8 µM [rising, partial curve]"
CCC(Sc1nc(C)cc(=O)[nH]1)C(=O)Nc1nc(-c2ccccc2)cs1 (stereo unspecified),"12.6 µM [rising, partial curve, poor fit]","15.8 µM [rising, partial curve]"
CC1(C)Cc2c(C#N)c(N3CCN(C(=O)c4ccccc4)CC3)nc(Cc3ccccc3)c2CO1,"11.2 µM [rising, single point]","12.6 µM [rising, single point]"
Cc1cccc(OC(=O)NCCOC(=O)N(O)c2ccc(Cl)cc2)c1,–,"35.5 µM [rising, single point]"
Cc1ccc(CNC(=O)C(C)n2c(=O)cc(C(F)(F)F)c3c(C)nn(C)c32)cc1 (stereo unspecified),"39.8 µM [falling, partial curve, poor fit]","0.562 µM [falling, full curve, poor fit]"
Cc1[nH]c2ccccc2c1/C=N/NC(=O)c1cccc(S(=O)(=O)Nc2cccc(C(F)(F)F)c2)c1,"35.5 µM [falling, partial curve]","35.5 µM [falling, single point]"
CCn1c(SCC(=O)Nc2oc(-c3ccccc3)c(-c3ccccc3)c2C#N)nnc1-c1cc(OC)cc(OC)c1,"10 µM [rising, partial curve, poor fit]",–
NC1=NC(c2cn(-c3ccccc3)nc2-c2cccs2)n2c(nc3ccccc32)N1 (stereo unspecified),–,"31.6 µM [rising, single point]"
CCOc1ccc(/C=N/NC(=O)c2c(C)n(C)c3ccc(OC)cc23)cc1,–,"11.2 µM [rising, partial curve]"
Cc1cc(-c2c(C)[nH]n(-c3ccccc3)c2=O)n[nH]1,"4.47 µM [falling, full curve]","2.51 µM [falling, full curve]"
CCOc1ccc(C2C(=O)N(C3CCCCCC3)CC(=O)N2Cc2ccccc2)cc1OC (stereo unspecified),"22.4 µM [rising, single point]","20 µM [rising, partial curve, poor fit]"
Cc1nn(CCc2nn[nH]n2)c2nc(-c3ccc(Br)cc3)cc(C(F)(F)F)c12,"8.91 µM [falling, partial curve, poor fit]",–
COc1cc(C#N)c(NC(=O)CN2CCN(CCO)CC2)cc1OC,"1 µM [falling, full curve]","0.0178 µM [falling, full curve, poor fit]"
O=C(Nc1ccc(Oc2c(F)c(F)c(F)c(F)c2F)cc1)OC1CCN2Cc3ccccc3N=C12 (stereo unspecified),"7.94 µM [falling, partial curve]","8.91 µM [falling, partial curve]"
O=C(CSc1ccccc1Cl)N1CCC(c2nc3ccccc3s2)CC1,"11.2 µM [rising, partial curve]","12.6 µM [rising, partial curve]"
C[C@H](NCCc1ccc(O)cc1)[C@@H](O)c1ccc(O)cc1,"12.6 µM [falling, partial curve, poor fit]","14.1 µM [falling, single point]"
NC(=Nc1ccccc1)NC(=O)c1nc(Cl)c(N)nc1N,"8.91 µM [rising, partial curve]",–
CCOC(=O)c1cccc(NC(=O)c2ncoc2-c2ccco2)c1,"0.0316 µM [rising, full curve, poor fit]",–
